In one assay the target is FBXW11-HA (UniProt Q9UKB1). As to the kind of experiment: co-immunoprecipitation in HEK293T cells, anti-StrepII pull-down, blot for HA (FIG. 2D).
The target of the next assay is BTRC-Myc (UniProt Q9Y297). Description: co-immunoprecipitation in HEK293T cells, anti-StrepII pull-down, blot for Myc (FIG. 2C).

Amino acid sequences for entries named in this document (tags omitted). A change or cut given only in a name is not applied to a line headed by its entry. Chains listed by the source or under a name are the forms on record and can include a tag or linker.
UniProt Q9UKB1: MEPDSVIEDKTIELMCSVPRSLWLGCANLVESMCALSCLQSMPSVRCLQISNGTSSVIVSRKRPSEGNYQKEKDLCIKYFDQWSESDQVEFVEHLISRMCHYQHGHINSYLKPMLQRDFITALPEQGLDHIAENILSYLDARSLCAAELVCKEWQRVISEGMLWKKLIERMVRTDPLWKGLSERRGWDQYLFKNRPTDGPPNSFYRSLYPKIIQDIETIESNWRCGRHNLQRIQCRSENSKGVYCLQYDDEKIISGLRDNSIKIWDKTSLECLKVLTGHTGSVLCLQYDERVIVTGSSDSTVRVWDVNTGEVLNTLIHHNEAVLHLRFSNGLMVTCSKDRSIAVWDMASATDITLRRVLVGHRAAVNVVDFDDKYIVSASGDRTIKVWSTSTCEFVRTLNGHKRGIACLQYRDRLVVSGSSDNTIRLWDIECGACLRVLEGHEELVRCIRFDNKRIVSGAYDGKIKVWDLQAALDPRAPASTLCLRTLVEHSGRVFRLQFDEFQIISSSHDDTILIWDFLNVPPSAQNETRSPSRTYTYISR
BTRC-Myc (Q9Y297, form named): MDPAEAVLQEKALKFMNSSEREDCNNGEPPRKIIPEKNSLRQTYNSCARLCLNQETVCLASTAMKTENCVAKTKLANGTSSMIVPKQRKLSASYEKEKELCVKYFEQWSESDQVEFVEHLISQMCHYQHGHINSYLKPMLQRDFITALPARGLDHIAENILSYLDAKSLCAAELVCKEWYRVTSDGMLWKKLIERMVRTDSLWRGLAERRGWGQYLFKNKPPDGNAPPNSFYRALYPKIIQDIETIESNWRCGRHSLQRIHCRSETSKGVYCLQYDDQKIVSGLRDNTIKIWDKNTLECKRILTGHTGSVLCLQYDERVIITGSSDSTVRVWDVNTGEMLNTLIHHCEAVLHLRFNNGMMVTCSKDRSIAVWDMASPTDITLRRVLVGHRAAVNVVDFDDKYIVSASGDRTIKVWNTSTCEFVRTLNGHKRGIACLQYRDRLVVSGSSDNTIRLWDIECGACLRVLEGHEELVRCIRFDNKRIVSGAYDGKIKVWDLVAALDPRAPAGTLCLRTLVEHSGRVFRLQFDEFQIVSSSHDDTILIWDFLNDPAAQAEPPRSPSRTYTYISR

Results are given in words; binding and its absence hold for the method and conditions named. Binding seen in cells or lysates may run through a third protein. Some results given as binding are weak or reduced against the parent protein; the word gives no strength. Where a sequence is shown, tags or fusion partners need not be part of it.

B1: full-length (FL) FLAG-StrepII-C1orf106 (protein, UniProt Q3KP66-3 1-578, looked up, not shown: small tags and cut ends)
chain: MESKDEVSDTDSGIILQSGPDSPVSPMKELTHAVHKQQRALEARLEACLEELRRLCLREAELTGTLPAEYPLKPGEKAPKVRRRIGAAYKLDDWALHREDPLSSLERQLALQLQITEAARRLCLEENLSRQARRQRKHSMLQEEKKLQELQRCLVERRRNSEPPPAAALPLGRELSASDDSSLSDGLLLEEEESQVPKPPPESPAPPSRPLPPQTLEGLQPTGPEAGSPERAPVQNSPWKETSLDHPYEKPRKSSEPWSESSSPATTPQDGPSASSLWLLEPASYHVVPIRGVPGQWQGRTSAPATPEIQGRRGQSQSLRVDSFRAGPEGRGRSAFPRRRPTHYTVTVPDSCFPATKPPLPHAACHSCSEDSGSDVSSISHPTSPGSSSPDISFLQPLSPPKTHRHRGAWVPAGSRELVAHHPKLLLPPGYFPAGRYVVVAESPLPPGEWELRRAAPGPAYEEEGTPLRYQRLVPSRSRIVRTPSLKDSPAGRGLSKAAVSEELKWWHERARLRSTRPHSLDRQGAFRVRSLPLGREGFGRALGPRAQVPTVCVLRRSPDGAPVQVFVPEKGEIISQV
Take B1: the binding entry in the assay with FBXW11-HA and with BTRC-Myc was “binds” throughout.

The record behind these values is patent US20200246488A1.
